Drawing on PubChem BioAssay AID2685 (National Center for Advancing Translational Sciences (NCATS), 2010), this text covers cell number change and AC50 for 55 compounds.

This assay can be described thus: qHTS Assay for Lipid Storage Modulators in Drosophila S3 Cells.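 As to cell number change: cells counted by Cell Tracker Red CMTPX staining in the red channel.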 The following applies: BODIPY lipid droplet fluorescence, 18-24 h; for cell number change: measured here: cell count max response, cells fed with added oleic acid. The essentials:
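Laser-scanning cytometry quantifies lipid droplet accumulation (500–530 nm total intensity; droplet/cell object ratio) in oleic acid-fed (400 uM added) Drosophila S3 cells treated with a concentration series. 20 uM Triacsin C defined 100% inhibition.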

[1] abbreviates: measured here: lipid fluorescence (Fed channel) AC50, cells fed with added oleic acid.
Setting [2] is: measured here: cell number channel AC50, cells fed with added oleic acid.

This is one part of the list. These are further read-outs of the screen, such as a control signal, another cell line or another target. No call is given for them. Compounds called inactive in the main read-out are mostly missing here. Potencies come from curve fits of mixed quality, noted in brackets.

Turning to `Cc1c(NC(=O)CN2c3ccccc3CC2C)c(=O)n(-c2ccccc2)n1C` (stereo not drawn), the cell number change is -20.8%. Besides, under setting [1], the AC50 is 1.46 µM [falling, partial curve].

Consider `O=C(COc1ccccc1)Nc1nnc(-c2ccccc2)o1`, for which the cell number change is -30.2%. In addition, under setting [2], the AC50 was 0.00461 µM [falling, full curve, poor fit]. Further, the AC50 under setting [1] is 0.164 µM [rising, full curve, poor fit].

With `Cc1nc2scc(C)n2c(=O)c1S(=O)(=O)NC(C)c1ccccc1` (stereo not drawn), the cell number change is -0.382%. Also, under setting [1], the AC50 is 6.51 µM [falling, single point].

For the compound `O=C(CCCc1ccccc1)NCCc1ccc(F)cc1`, the cell number change is -1.59%. Further, the AC50 under setting [1] is 3.66 µM [falling, single point].

For the compound `Cc1cccc(N2CCN(C(=O)c3cc4cc(F)ccc4[nH]3)CC2)c1C`, the cell number change was 15.7%. Under setting [1], the AC50 was 6.51 µM [rising, full curve, poor fit].

Turning to `NC(=O)CN1C(=O)NC(c2ccccc2)(c2ccccc2)C1=O`, the AC50 under setting [1] was 0.146 µM [falling, full curve, poor fit].

For `CC1O[C@@H](O[C@H](C)CC[C@@H](C)O[C@H]2OC(C)[C@@H](O)C[C@H]2O)C(O)C[C@H]1O` (stereo partly drawn), the cell number change was -4.37%. In addition, the concentration at half-maximal activity (AC50) under setting [1] is 0.00461 µM [falling, full curve, poor fit].

For `Cc1cc(C(=O)CSc2ncnc3ccccc23)c(C)n1C1CC1`, the cell number change is -22.1%. Further, under setting [1], the AC50 is 1.84 µM [falling, partial curve].

In the case of `CCOC(=O)Cn1c(C)nc2c(C(=O)OCC)sc(C)c2c1=O`, the cell number change is -5.75%. Also, the AC50 under setting [1] is 0.00651 µM [rising, full curve, poor fit].

As to `CNC(=S)NC1CC2CCCC(C1)N2Cc1ccco1` (stereo not drawn), the cell number change is -97.1%. For the same compound, the half-maximal activity concentration (AC50) under setting [2] was 18.4 µM [falling, partial curve]. Besides, the AC50 under setting [1] was 18.4 µM [falling, partial curve].

`Cc1cc2oc(C(=O)Nc3ccc(S(=O)(=O)Nc4onc(C)c4C)cc3)cc(=O)c2cc1Cl`: the cell number change is -13.6%. Further, under setting [1], the AC50 was 0.13 µM [falling, full curve].

With `COc1ccccc1OCCc1nnc(N)s1`, the cell number change was 16%. Moreover, under setting [1], the AC50 was 0.517 µM [falling, single point].

Turning to `O=C(COC(=O)c1ccc(S(=O)(=O)Nc2ccccc2)cc1)NC1CCCC1`, the cell number change is -42.3%. Moreover, the AC50 under setting [2] was 11.6 µM [falling, single point]. Further, under setting [1], the AC50 is 29.1 µM [falling, partial curve, poor fit].

As to `Nc1ccc(C(=O)N2CCN(S(=O)(=O)c3ccc4c(c3)OCCO4)CC2)cc1[N+](=O)[O-]`, the cell number change stood at 28.4%. Further, the AC50 under setting [2] is 2.06 µM [rising, full curve, poor fit]. Under setting [1], the concentration at half-maximal activity (AC50) is 10.3 µM [rising, partial curve, poor fit].

Consider `COC(=O)CCC(=O)Nc1cccc2c(NC(=O)CCC(=O)OC)cccc12`, for which the cell number change was -106%. Besides, under setting [2], the concentration at half-maximal activity (AC50) is 29.1 µM [falling, single point].

Regarding `O=[N+]([O-])c1cc(C(F)(F)F)ccc1N1CCN(CCO)CC1`, the cell number change was -40.4%. In addition, the half-maximal activity concentration (AC50) under setting [2] is 0.411 µM [falling, full curve].

In the case of `COc1cccc(N2CCN(C(=O)c3cc4c(s3)CCCCC4)CC2)c1`, the cell number change was 20.2%. Further, the half-maximal activity concentration (AC50) under setting [1] is 6.51 µM [rising, partial curve, poor fit].

Regarding `CC1CCN(C(=O)c2[nH]cnc2C(=O)N[C@H](C)c2ccccc2)CC1`, the cell number change is -8.41%. In addition, the AC50 under setting [2] is 0.82 µM [falling, full curve, poor fit]. For the same compound, the AC50 under setting [1] was 0.0517 µM [falling, full curve, poor fit].

For the compound `O=C1c2ccccc2NC(c2ccc(Br)o2)N1O` (stereo not drawn), the cell number change was -13.5%. Besides, the AC50 under setting [1] is 0.411 µM [rising, partial curve, poor fit].

As to `CCCn1nc(NC(=O)c2ccco2)c2cc3ccccc3nc21`, the cell number change was -15%. Further, the AC50 under setting [1] is 35.5 µM [falling, single point].

For the compound `CCN(c1ccccc1)S(=O)(=O)c1ccc(C(C(=O)OC)C(=O)OC)c([N+](=O)[O-])c1`, the cell number change came out at 15.7%.

For `Cc1n[nH]c(=O)c2c(NC(=O)CSc3ccc(F)cc3)oc(C)c12`, the cell number change is 54%. Further, under setting [2], the AC50 was 5.17 µM [rising, partial curve].

Consider `Cn1c(=O)c2c(ncn2CCc2ccccc2)n(C)c1=O`, for which the cell number change amounted to 96.8%. Under setting [2], the AC50 is 29.1 µM [rising, single point].

For `CCN(CC)CCCN=C1N[C@@H](c2ccccc2)C(C(=O)OC)=C(C)N1CC`, the cell number change was determined as 22.8%. For the same compound, under setting [1], the AC50 is 6.51 µM [falling, partial curve, poor fit].

In the case of `Cc1cc(NC(=O)COc2coc(CN3CCN(c4ccccc4)CC3)cc2=O)no1`, the cell number change turned out to be 2.09%. The AC50 under setting [1] was 2.31 µM [rising, partial curve].

On to `C=CCOc1c(Cl)cc(C2NC(=O)NC(C)=C2C(=O)OC)cc1Cl` (stereo not drawn), for which the cell number change was found to be 27.1%. Further, the AC50 under setting [1] is 18.4 µM [rising, single point].

On to `CC(=O)c1cccc(NC(=S)NCc2ccccc2)c1`, for which the cell number change was -13.9%. Besides, the concentration at half-maximal activity (AC50) under setting [1] was 29.1 µM [falling, single point].

Turning to `CCOC(=O)COc1cc2c3c(c(=O)oc2cc1C)CCCC3`, the cell number change is 35.5%. Also, the concentration at half-maximal activity (AC50) under setting [2] was 23.1 µM [rising, single point]. Moreover, the AC50 under setting [1] is 25.9 µM [rising, single point].

As to `Cc1cc(/C=N\NC(=O)c2cccs2)c(C)n1-c1ccc2ncccc2c1`, the cell number change was 12.3%. Besides, the AC50 under setting [2] was 0.00411 µM [rising, full curve, poor fit]. In addition, under setting [1], the concentration at half-maximal activity (AC50) is 2.91 µM [rising, partial curve, poor fit].

`Cc1ccc(-c2nc(CS(=O)CC(=O)NCCCN3CC(C)CC(C)C3)c(C)o2)cc1` (stereo not drawn): the cell number change is 2.5%. The half-maximal activity concentration (AC50) under setting [1] was 0.58 µM [falling, full curve, poor fit].

Consider `Cc1ccc(NC(=S)NNC(=O)CSc2nc3ccccc3c(=O)n2-c2ccc(C)cc2)cc1`, for which the cell number change was 2.63%. For the same compound, under setting [1], the AC50 was 1.46 µM [rising, full curve].

On to `Cn1c(-c2ccc3c(c2)OCO3)cnc1NCc1ccccc1Cl`, for which the cell number change is -34.7%. Under setting [2], the AC50 is 4.11 µM [falling, full curve, poor fit]. Besides, under setting [1], the AC50 was 0.146 µM [falling, partial curve, poor fit].

For the compound `CC1=NN(C(=O)c2ccccc2Br)C(O)(c2ccc(Cl)cc2)C1` (stereo not drawn), the cell number change was -12.1%. Moreover, the half-maximal activity concentration (AC50) under setting [1] is 29.1 µM [falling, single point].

With `COc1ccc(-c2nnc(NC(=O)c3cc(C)on3)s2)cc1`, the AC50 under setting [1] is 6.51 µM [rising, single point].

For the compound `CN1CCC(OC(=O)COc2ccc(C(C)(C)C)cc2)CC1`, the cell number change was -26.1%. Moreover, under setting [1], the AC50 was 0.731 µM [falling, full curve].

As to `CC(C)C1Nc2ccc(C(=O)NC3CCCCC3)cc2NC1=O` (stereo not drawn), the cell number change came to 1.71%. Further, the half-maximal activity concentration (AC50) under setting [1] is 18.4 µM [rising, single point].

In the case of `O=[N+]([O-])c1cccc(/C=N/Nc2nc(C(Cl)(Cl)Cl)nc3ccccc23)c1`, the cell number change was -34.4%. Besides, the AC50 under setting [2] was 29.1 µM [falling, single point].

Consider `Cc1c(NC(=O)CN2CC(C)OC(C)C2)c(=O)n(-c2ccccc2)n1C` (stereo not drawn), for which the cell number change is -16.3%. Moreover, under setting [2], the concentration at half-maximal activity (AC50) is 2.59 µM [falling, single point]. Moreover, under setting [1], the AC50 was 3.66 µM [falling, full curve].

Consider `COc1ccc(/C=C/C(=O)C(C)(C)C)cc1OC`, for which the cell number change was -1.85%. For the same compound, the AC50 under setting [1] is 29.1 µM [falling, single point].

Turning to `Cc1cccc(Oc2coc3cc(OC(=O)c4cncc(Br)c4)ccc3c2=O)c1`, the cell number change was -48.4%. The AC50 under setting [2] is 0.184 µM [falling, full curve]. The half-maximal activity concentration (AC50) under setting [1] is 0.164 µM [rising, full curve, poor fit].

As to `COc1ccc(C(CC(=O)O)NS(=O)(=O)c2ccc3c(c2)N(C(C)=O)CC(C)O3)cc1` (stereo not drawn), the cell number change is -9.79%. The half-maximal activity concentration (AC50) under setting [1] was 0.00517 µM [falling, full curve, poor fit].

`CCOC(=O)c1c(NC(=O)CSc2nnc(C)s2)sc2c1CCC(CC)C2` (stereo not drawn): the cell number change is -34.2%. Besides, under setting [2], the AC50 was 20.6 µM [falling, single point]. For the same compound, the AC50 under setting [1] is 20.6 µM [falling, single point].

`CCc1nnc2n1N=C(c1ccc(Cl)cc1Cl)CS2`: the cell number change is 16.9%.

Take `O=C(COc1ccc(S(=O)(=O)N2CCOCC2)cc1Cl)NCCN1CCOCC1`: the cell number change turned out to be 11.1%. For the same compound, the AC50 under setting [1] is 6.51 µM [falling, single point].

Regarding `COc1ccccc1-n1cnc2cc(NCc3cccs3)ccc21`, the cell number change is 22.2%. The concentration at half-maximal activity (AC50) under setting [2] was 3.66 µM [rising, partial curve, poor fit]. For the same compound, under setting [1], the AC50 was 1.46 µM [rising, full curve].

As for `COc1ccc(NC(=O)COC(=O)c2ccc(F)cc2F)cc1`, the cell number change is -49.7%. Further, the concentration at half-maximal activity (AC50) under setting [2] is 16.4 µM [falling, single point].

On to `C/C(=C\C(=O)C(F)(F)F)Nc1ccc(C(F)(F)F)cc1`, for which the cell number change is -109%. Further, the AC50 under setting [1] is 16.4 µM [falling, partial curve].

For `Cc1cc(NC(=O)c2cnn3c(C(F)(F)F)cc(-c4ccc(Br)cc4)nc23)no1`, the cell number change turned out to be 45.6%. The AC50 under setting [2] was 0.731 µM [rising, full curve, poor fit]. For the same compound, the AC50 under setting [1] was 0.731 µM [rising, partial curve].

Turning to `COc1ccc(/C=N/NC(=O)c2ccn[nH]2)cc1CN1CCOCC1`, the cell number change is -26.6%. Also, the half-maximal activity concentration (AC50) under setting [2] was 0.116 µM [falling, full curve, poor fit].

Consider `CCCCCCCCNC(=S)NCCN1CCCCC1`, for which the half-maximal activity concentration (AC50) under setting [2] is 0.92 µM [falling, full curve, poor fit].

`CC(C)c1ccc(NC(=O)C2CCCN(S(=O)(=O)c3ccc4c(c3)C(C)(C)C(=O)N4C)C2)cc1` (stereo not drawn): the cell number change came out at 19.5%. In addition, under setting [1], the half-maximal activity concentration (AC50) is 29.1 µM [falling, single point].

For the compound `Cc1nc2ccccc2n1Cc1ccccc1Br`, the cell number change was determined as 2.85%. Also, the AC50 under setting [1] is 20.6 µM [falling, single point].

On to `Cc1ccc(S(=O)(=O)N2CC(O)CC2C(=O)Nc2ccc3c(c2)CCC3)cc1` (stereo not drawn), for which the cell number change worked out at 14.4%. For the same compound, the AC50 under setting [1] is 29.1 µM [rising, single point].

For `O=C1OC(c2ccc(F)cc2)=N/C1=C\C=C/c1ccccc1`, the cell number change amounted to 24.5%. Moreover, under setting [1], the AC50 is 11.6 µM [rising, partial curve].

On to `Cc1cc(NC(=O)CSc2nc3cc(Cl)ccc3c(=O)n2C(C)C)no1`, for which the cell number change was 53.5%. For the same compound, the AC50 under setting [2] was 3.66 µM [rising, partial curve].
